This passage reports binding results from publication PMC13203959, “New inhibitors of the Pseudomonas aeruginosa enzyme, PqsE, and methods assessing their potential to induce a conformational change via active site binding” (mSphere, 2026).

Amino acid sequences for entries named in this document (tags omitted).
UniProt P20581: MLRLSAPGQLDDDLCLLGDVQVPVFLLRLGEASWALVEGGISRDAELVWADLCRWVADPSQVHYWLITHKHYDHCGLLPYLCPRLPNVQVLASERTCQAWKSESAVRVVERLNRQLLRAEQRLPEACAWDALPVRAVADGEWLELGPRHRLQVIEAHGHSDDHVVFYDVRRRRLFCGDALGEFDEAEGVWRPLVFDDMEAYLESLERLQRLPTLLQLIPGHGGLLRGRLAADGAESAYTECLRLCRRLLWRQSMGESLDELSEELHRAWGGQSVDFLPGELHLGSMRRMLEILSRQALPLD
UniProt P54292: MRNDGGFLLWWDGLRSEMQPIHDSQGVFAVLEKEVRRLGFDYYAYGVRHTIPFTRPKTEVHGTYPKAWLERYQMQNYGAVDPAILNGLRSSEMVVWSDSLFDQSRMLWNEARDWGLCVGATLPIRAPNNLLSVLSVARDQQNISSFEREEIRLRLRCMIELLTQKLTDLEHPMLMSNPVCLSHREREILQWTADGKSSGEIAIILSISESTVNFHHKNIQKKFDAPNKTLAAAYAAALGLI

The target in the assay is 6xHis-PqsE(WT) (Pseudomonas aeruginosa) (UniProt P20581). As to the kind of experiment: pull-down; purified 6xHis-PqsE(WT) (1 uM final), pre-incubated 10 min with DMSO, HJ1 or HJ5 (up to 100 uM), added to RhlR-containing E. coli lysate in 50 mM Tris-HCl, 150 mM NaCl, 20 mM imidazole, pH 8.0; 4°C; captured on MagneHis Ni resin, eluted with 500 mM imidazole, SDS-PAGE; only the target purified.

No constants are given. Whether binding was seen depends on the method and setting. Binding seen in cells or lysates may run through a third protein. Some binding calls cover weakened binding; strength is not graded here.

Turning to “RhlR (from UniProt P54292 1-241) (receptor)”, the binding entry is “binds”.
